From the supplement of paper PMC10849652
This is one part of the list.

Chains of the proteins cited; added tags and fusions are not shown. Lines headed by an entry give the natural chain unless they say otherwise; changes in a name come on top.
UniProt Q96N67: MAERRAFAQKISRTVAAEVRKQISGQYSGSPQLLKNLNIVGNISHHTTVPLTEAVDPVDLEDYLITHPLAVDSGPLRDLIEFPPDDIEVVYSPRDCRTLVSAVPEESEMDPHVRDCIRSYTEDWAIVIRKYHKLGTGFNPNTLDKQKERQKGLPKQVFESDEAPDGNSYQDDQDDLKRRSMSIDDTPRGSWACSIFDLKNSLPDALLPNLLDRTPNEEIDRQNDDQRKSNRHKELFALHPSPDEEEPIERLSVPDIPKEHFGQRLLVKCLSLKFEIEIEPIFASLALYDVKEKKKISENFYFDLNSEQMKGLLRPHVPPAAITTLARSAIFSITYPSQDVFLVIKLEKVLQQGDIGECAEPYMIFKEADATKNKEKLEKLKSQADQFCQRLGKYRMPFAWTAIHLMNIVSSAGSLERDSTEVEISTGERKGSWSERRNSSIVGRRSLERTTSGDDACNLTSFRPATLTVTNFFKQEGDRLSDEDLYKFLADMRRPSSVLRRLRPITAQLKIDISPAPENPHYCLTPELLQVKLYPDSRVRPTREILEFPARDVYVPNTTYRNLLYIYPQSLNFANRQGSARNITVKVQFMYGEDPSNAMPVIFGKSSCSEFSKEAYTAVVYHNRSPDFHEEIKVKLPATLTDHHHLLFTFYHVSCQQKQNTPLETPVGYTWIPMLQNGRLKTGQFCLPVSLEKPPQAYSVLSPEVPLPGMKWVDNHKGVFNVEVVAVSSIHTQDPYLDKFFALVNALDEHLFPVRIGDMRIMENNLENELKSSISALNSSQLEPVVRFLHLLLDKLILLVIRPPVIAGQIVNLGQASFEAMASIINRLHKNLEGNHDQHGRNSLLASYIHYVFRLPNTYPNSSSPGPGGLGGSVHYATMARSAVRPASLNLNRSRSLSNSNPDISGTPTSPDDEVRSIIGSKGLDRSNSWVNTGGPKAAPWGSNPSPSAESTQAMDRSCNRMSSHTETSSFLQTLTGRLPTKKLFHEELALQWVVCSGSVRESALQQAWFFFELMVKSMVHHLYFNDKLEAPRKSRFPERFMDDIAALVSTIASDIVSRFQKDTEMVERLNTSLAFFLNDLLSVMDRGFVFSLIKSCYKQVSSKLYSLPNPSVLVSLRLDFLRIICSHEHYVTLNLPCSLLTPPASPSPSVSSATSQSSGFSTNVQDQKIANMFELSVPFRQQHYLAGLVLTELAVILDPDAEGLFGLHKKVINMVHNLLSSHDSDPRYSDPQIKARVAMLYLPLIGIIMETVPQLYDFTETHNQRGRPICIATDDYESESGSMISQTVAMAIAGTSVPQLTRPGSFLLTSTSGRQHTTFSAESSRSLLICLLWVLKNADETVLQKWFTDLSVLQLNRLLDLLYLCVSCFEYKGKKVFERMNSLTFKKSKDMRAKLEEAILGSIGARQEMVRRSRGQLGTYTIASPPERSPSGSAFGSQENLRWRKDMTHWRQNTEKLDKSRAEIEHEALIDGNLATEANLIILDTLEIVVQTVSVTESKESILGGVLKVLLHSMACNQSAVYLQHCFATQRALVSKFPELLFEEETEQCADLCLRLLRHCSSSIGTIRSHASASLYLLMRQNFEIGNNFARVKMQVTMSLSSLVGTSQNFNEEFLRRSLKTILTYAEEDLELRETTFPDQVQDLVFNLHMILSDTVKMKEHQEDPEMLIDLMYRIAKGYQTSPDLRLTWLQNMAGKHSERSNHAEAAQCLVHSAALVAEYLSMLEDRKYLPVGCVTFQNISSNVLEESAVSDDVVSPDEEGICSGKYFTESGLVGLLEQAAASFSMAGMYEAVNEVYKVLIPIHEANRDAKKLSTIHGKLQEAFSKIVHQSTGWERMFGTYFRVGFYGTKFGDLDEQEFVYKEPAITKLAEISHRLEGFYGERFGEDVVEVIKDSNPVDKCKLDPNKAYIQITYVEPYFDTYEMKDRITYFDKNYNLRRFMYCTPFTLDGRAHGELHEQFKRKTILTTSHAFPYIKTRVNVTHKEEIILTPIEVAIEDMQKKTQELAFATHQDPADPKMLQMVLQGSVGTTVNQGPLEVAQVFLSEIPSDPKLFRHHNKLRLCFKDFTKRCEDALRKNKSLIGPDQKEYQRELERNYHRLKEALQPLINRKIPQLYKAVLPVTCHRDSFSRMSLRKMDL
UniProt Q96QB1: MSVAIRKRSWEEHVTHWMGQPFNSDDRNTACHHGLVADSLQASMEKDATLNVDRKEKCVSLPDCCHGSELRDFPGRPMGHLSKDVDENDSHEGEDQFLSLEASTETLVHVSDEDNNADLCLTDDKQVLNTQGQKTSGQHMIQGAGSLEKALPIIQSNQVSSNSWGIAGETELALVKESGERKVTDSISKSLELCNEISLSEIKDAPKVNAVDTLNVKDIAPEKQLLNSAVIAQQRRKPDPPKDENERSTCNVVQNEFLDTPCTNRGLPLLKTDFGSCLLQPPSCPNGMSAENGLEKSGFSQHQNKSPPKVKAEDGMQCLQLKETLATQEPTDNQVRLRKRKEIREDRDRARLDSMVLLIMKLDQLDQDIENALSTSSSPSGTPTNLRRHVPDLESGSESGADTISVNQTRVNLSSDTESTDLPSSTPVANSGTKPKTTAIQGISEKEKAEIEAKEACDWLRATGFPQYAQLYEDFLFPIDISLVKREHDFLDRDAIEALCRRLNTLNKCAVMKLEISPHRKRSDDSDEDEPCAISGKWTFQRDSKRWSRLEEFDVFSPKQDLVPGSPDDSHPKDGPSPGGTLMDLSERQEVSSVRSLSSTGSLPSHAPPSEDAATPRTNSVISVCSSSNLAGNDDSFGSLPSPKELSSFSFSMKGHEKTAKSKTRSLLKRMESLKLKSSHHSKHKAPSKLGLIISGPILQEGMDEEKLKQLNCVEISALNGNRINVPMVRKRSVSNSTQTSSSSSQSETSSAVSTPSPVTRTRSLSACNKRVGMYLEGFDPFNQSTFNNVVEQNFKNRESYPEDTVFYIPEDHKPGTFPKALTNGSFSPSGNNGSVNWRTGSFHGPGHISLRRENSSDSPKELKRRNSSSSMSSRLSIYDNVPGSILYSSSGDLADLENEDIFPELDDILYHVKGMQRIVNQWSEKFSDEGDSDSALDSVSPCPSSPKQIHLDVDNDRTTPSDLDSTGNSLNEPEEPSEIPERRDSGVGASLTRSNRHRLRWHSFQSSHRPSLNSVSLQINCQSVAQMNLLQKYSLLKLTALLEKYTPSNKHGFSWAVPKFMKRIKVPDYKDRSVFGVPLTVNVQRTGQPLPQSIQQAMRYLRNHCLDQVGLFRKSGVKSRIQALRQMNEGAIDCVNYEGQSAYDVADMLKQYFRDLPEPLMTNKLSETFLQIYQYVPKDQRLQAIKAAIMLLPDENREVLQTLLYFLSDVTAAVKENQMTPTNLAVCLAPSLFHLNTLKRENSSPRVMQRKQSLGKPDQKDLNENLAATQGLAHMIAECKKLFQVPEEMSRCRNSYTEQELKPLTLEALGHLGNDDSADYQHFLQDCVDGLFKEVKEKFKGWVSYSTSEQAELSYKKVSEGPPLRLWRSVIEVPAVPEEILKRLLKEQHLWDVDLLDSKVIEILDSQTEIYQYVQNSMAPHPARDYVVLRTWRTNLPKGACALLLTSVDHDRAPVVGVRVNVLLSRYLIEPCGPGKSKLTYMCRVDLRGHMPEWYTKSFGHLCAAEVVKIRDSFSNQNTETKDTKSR
UniProt P49366: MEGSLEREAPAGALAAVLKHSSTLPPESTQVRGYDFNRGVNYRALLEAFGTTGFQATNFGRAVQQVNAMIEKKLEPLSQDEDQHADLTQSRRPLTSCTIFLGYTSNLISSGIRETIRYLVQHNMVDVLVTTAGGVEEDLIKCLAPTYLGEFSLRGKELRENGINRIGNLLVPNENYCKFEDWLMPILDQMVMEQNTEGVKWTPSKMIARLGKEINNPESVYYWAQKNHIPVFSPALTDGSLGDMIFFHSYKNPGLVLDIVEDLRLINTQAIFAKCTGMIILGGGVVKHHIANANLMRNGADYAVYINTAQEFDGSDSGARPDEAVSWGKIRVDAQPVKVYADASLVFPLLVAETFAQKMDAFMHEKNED
UniProt Q16854: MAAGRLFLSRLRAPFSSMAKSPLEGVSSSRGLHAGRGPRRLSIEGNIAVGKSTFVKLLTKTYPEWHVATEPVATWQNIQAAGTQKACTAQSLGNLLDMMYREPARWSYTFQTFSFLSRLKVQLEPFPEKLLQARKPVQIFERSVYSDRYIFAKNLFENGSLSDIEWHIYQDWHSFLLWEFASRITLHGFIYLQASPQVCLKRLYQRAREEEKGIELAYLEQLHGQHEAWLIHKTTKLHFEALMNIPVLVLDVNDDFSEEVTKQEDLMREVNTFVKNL
UniProt P36957: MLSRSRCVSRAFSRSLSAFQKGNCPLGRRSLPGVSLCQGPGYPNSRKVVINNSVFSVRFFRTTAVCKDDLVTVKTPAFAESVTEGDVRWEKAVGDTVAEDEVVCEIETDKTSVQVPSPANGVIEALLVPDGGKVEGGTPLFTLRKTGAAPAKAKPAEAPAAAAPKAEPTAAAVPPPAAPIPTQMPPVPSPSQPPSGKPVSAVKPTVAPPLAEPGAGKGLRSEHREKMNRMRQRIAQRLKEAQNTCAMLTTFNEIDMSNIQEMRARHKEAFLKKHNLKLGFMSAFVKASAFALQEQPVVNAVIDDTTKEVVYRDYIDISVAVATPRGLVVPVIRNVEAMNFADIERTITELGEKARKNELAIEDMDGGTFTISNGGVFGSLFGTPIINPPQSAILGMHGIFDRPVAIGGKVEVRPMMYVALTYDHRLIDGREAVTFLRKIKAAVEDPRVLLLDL
UniProt Q9H2U1: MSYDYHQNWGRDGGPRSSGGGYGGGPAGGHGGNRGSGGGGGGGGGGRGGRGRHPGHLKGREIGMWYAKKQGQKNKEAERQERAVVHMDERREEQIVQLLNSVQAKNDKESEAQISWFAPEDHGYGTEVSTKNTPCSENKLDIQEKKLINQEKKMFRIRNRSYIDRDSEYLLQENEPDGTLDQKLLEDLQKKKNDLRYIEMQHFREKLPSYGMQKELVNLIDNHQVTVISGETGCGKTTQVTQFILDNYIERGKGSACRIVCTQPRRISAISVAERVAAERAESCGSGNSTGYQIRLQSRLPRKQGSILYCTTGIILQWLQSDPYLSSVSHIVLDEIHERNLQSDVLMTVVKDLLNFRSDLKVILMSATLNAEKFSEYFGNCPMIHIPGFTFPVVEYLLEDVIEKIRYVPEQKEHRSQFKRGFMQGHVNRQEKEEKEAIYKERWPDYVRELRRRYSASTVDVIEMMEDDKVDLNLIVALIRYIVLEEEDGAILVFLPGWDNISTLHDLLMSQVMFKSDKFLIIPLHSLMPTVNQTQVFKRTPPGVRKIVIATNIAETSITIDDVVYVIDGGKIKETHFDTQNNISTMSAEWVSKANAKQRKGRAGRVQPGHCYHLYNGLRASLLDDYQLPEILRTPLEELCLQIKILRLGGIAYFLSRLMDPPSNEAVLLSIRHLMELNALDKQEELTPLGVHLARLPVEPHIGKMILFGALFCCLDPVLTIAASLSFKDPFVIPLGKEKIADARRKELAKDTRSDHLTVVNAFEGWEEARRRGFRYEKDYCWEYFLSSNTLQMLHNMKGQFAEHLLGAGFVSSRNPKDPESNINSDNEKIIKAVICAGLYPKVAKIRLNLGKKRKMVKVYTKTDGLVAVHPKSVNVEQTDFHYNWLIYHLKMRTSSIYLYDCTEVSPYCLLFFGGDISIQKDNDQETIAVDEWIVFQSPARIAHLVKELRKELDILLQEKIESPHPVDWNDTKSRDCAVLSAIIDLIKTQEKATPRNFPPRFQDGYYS
UniProt Q9H5Z1: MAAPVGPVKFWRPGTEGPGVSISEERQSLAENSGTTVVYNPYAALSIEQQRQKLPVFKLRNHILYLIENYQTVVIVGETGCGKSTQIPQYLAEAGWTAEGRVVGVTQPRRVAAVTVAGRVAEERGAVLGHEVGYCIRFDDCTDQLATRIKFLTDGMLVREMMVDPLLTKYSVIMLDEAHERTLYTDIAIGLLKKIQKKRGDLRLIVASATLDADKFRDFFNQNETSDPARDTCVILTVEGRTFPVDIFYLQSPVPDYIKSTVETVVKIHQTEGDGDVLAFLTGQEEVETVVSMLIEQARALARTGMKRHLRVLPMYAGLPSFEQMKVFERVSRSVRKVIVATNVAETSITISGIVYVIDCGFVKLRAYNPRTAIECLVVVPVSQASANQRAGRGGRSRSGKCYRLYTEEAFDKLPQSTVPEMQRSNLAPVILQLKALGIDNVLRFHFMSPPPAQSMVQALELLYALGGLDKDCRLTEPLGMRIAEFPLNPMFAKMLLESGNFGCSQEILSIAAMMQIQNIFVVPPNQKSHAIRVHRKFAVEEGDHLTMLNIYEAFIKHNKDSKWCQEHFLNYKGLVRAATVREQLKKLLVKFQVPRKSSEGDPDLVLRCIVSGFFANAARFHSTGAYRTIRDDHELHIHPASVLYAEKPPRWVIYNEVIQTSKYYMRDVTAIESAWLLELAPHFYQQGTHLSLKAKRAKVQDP

Tests used:
Assay in all cases: log2 fold change, soluble protein after heating vs DMSO (PISA); higher = thermal stabilisation; K562 lysate, 10 uM; active = over 0.2 and 3.5 SD of the protein, either way, in both replicates (recomputed)
[1] = compound: C1=CC=C(C=C1)[C@H](COC2=CC3=C(C=C2)NC(=O)N3)NC(=O)C4=CC=CN(C4=O)CC5=CC(=C(C=C5)F)F
Procedure, shortened: (§1)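 Pellets of K562 cells were dounce-homogenised in PBS pH 7.4 with 1 mM MgCl2, and the crude extract was held at 1 mg/mL protein for a 30 min treatment with 10 μM compound. Aliquots were heated for 3 min over 48°C-58°C and pooled before NP-40 was added to 0.5% at 4°C. The supernatant from 21,000xg for 90 min was quantified by TMTpro 16plex LC-MS/MS with channel sums equalised. Values are reported from duplicates as log-two fold change in thermal stability relative to solvent controls.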

[2] = compound: CC1=C(SC2=C1C(=N[C@H](C3=NN=C(N32)C)CC(=O)N)C4=CC=C(C=C4)Cl)C
Procedure, shortened: as §1

[3] = compound: CC1=C2C(=CC=C1)N=C(N(C2=O)C3=CC=CC=C3C)CN4C=NC5=C(N=CN=C54)N
Procedure, shortened: as §1

[4] = compound: Cc1sc2c(c1C)C(c1ccc(Cl)cc1)=N[C@@H](CC(=O)OC(C)(C)C)c1nnc(C)n1-2
Procedure, shortened: as §1

[5] = compound: c1ccc([C@@H]2C[C@H]2NC2CCNCC2)cc1
Procedure, shortened: as §1

Measured: log2 fold change

DHX16 (UniProt O60231)
inactive: [1] 0.022 | [2] 0.02 | [3] 0.024 | [4] 0.013 | [5] 0.058

DLAT (UniProt P10515)
inactive: [1] -0.034 | [2] 0.002 | [3] -0.014 | [4] -0.089 | [5] -0.023

DLG5 (UniProt Q8TDM6)
inactive: [1] -0.1 | [2] 0.002 | [3] 0.247 | [4] -0.4

DNAJC12 (UniProt Q9UKB3)
inactive: [1] 0.052 | [2] -0.047 | [3] -0.032 | [4] -0.029 | [5] -0.074

DGKA (UniProt P23743)
inactive: [1] -0.21 | [2] -0.367 | [3] 0.018 | [4] -0.023 | [5] -0.022

DLGAP4 (UniProt Q9Y2H0)
inactive: [1] 0.046 | [2] -0.02 | [3] -0.105 | [4] -0.003 | [5] -0.023

DHX30 isoform 2 (UniProt Q7L2E3)
inactive: [1] -0.015 | [2] 0.052 | [3] 0.026 | [4] 0.026 | [5] 0.018

DNHD1 (UniProt Q96M86)
inactive: [1] -0.056 | [2] 0.109 | [3] 0.105

DIS3L (UniProt Q8TF46)
inactive: [1] -0.123 | [2] 0.096 | [3] 0.082 | [4] 0.033 | [5] 0.015

DNAJB6 (UniProt O75190)
inactive: [1] -0.037 | [2] 0.006 | [3] -0.028 | [4] -0.063 | [5] -0.026

DGKZ (UniProt Q13574)
inactive: [1] -0.031 | [2] -0.053 | [3] -0.046 | [4] 0.014 | [5] 0.069

DOCK7 (UniProt Q96N67)
inactive: [1] 0.071 | [2] 0.095 | [3] -0.017 | [4] -0.011 | [5] 0.012

DPCD (UniProt Q9BVM2)
inactive: [1] 0.023 | [2] 0.009 | [3] 0.002 | [4] 0.008 | [5] 0.047

DGKH (UniProt Q86XP1)
inactive: [1] -0.307 | [2] -0.216 | [3] 0.107 | [4] -0.039 | [5] 0.019

2 entries picked at random from those above, as already listed:
DNAJB6 (UniProt O75190)
inactive: [1] -0.037 | [2] 0.006 | [3] -0.028 | [4] -0.063 | [5] -0.026

DGKH (UniProt Q86XP1)
inactive: [1] -0.307 | [2] -0.216 | [3] 0.107 | [4] -0.039 | [5] 0.019

More records

DHX34 (UniProt Q14147)
inactive: [1] -0.141 | [2] 0.108 | [3] 0.283 | [4] 0.098 | [5] -0.06

DNAJC9 (UniProt Q8WXX5)
inactive: [1] -0.002 | [2] 0.01 | [3] -0.049 | [4] 0.004 | [5] 0.019

DLC1 (UniProt Q96QB1)
inactive: [1] 0.013 | [2] 0.146

DIS3L2 (UniProt Q8IYB7)
inactive: [1] -0.023 | [2] 0.015 | [3] 0.067 | [4] 0.029 | [5] 0.034

DNAJA3 isoform 2 (UniProt Q96EY1)
inactive: [1] -0.077 | [2] -0.055 | [3] 0.074 | [4] -0.047

DHPS (UniProt P49366)
inactive: [1] 0.018 | [2] 0.019 | [3] -0.002 | [4] -0.043 | [5] -0.054

DLG1 isoform 3 (UniProt Q12959)
inactive: [1] -0.054 | [2] -0.101

DMTF1 (UniProt Q9Y222)
inactive: [1] 0.081 | [2] -0.059 | [3] 0.134 | [4] 0.147 | [5] -0.075

DHX37 (UniProt Q8IY37)
inactive: [1] -0.15 | [2] 0.074 | [3] 0.028 | [4] 0.063 | [5] 0.136

DNAJA2 (UniProt O60884)
inactive: [1] -0.007 | [2] -0.002 | [3] 0.009 | [4] 0.046 | [5] -0.023

DNAJB1 (UniProt P25685)
inactive: [1] 0 | [2] 0.003 | [3] -0.008 | [4] -0.023 | [5] 0.045

DGUOK (UniProt Q16854)
inactive: [1] 0.001 | [2] 0.032 | [3] -0.095 | [4] -0.011 | [5] -0.021

DLST (UniProt P36957)
inactive: [1] 0.048 | [2] -0.034 | [3] 0.028 | [4] -0.025 | [5] -0.005

DHX36 (UniProt Q9H2U1)
inactive: [1] 0.027 | [2] 0.051 | [3] -0.009 | [4] 0.014 | [5] -0.008

DHX8 (UniProt Q14562)
inactive: [1] 0 | [2] 0.01 | [3] -0.012 | [4] -0.001 | [5] 0.007

DNAJC7 (UniProt Q99615)
inactive: [1] 0.076 | [2] -0.057 | [3] 0.028 | [4] 0.044 | [5] -0.035

DNAJA3 (UniProt Q96EY1)
inactive: [1] -0.033 | [2] -0.007 | [3] 0.006 | [4] 0.017 | [5] 0.038

DNMBP (UniProt Q6XZF7)
inactive: [1] 0.023 | [2] 0.003 | [3] -0.013 | [4] -0.024 | [5] -0.034

DNMT1 isoform 2 (UniProt P26358)
inactive: [1] 0.019 | [2] 0.001 | [3] -0.009 | [4] 0.023 | [5] 0.015

DOCK11 (UniProt Q5JSL3)
inactive: [1] 0.001 | [2] 0.012 | [3] 0.051 | [4] -0.013 | [5] -0.005

DKC1 (UniProt O60832)
inactive: [1] -0.037 | [2] 0.028 | [3] 0.002 | [4] -0.032 | [5] -0.039

DNAJC5 (UniProt Q9H3Z4)
inactive: [1] 0.032 | [2] -0.015 | [3] -0.034 | [4] 0.009 | [5] -0.308

DNAH5 (UniProt Q8TE73)
inactive: [1] -0.019 | [2] 0.018 | [3] 0.007 | [4] -0.087 | [5] -0.216

DHRS4 (UniProt Q9BTZ2)
inactive: [1] 0.056 | [2] 0.002 | [3] -0.003 | [4] 0.03 | [5] 0.012

DMAP1 (UniProt Q9NPF5)
inactive: [1] 0.161 | [2] -0.04 | [3] 0.009 | [4] -0.049 | [5] 0.073

DHODH (UniProt Q02127)
inactive: [1] 0.037 | [2] -0.001 | [3] 0.007 | [4] 0.014 | [5] -0.017

DNAJC10 (UniProt Q8IXB1)
inactive: [1] 0.035 | [2] -0.013 | [3] -0.001 | [4] -0.035 | [5] -0.036

DIAPH3 (UniProt Q9NSV4)
inactive: [1] -0.09 | [2] 0.017 | [3] -0.035 | [4] 0.099 | [5] 0.195

DLD (UniProt P09622)
inactive: [1] 0.005 | [2] -0.017 | [3] 0.008 | [4] -0.022 | [5] -0.076

DNM1L isoform 6 (UniProt O00429)
inactive: [1] 0.001 | [2] 0.03 | [3] 0.039 | [4] 0.021 | [5] 0.038

DHX35 (UniProt Q9H5Z1)
inactive: [1] 0.005 | [2] 0.064 | [3] -0.182 | [4] 0.019 | [5] -0.061

DHCR7 (UniProt Q9UBM7)
inactive: [1] -0.107 | [2] 0.028 | [3] -0.031 | [4] -0.045 | [5] 0.091

DHRS4L1 (UniProt P0CG22)
inactive: [1] -0.012 | [2] -0.075 | [3] -0.009 | [4] -0.337 | [5] 0.013

DFFB (UniProt O76075)
inactive: [1] 0.06 | [2] -0.057 | [3] 0.061 | [4] -0.032 | [5] 0.081

DNAJB2 (UniProt P25686)
inactive: [1] -0.17 | [2] 0.002 | [3] 0.041 | [4] -0.111 | [5] 0.044

DOCK10 (UniProt Q96BY6)
inactive: [1] 0.053 | [2] -0.018 | [3] 0.062 | [4] -0.109 | [5] -0.491

DGAT1 (UniProt O75907)
inactive: [1] 0.008 | [2] -0.019 | [3] 0.012 | [4] -0.061 | [5] -0.001

DIPK2A (UniProt Q8NDZ4)
inactive: [1] 0.052 | [2] -0.045 | [3] -0.052 | [4] 0.052 | [5] 0.036

DIS3 (UniProt Q9Y2L1)
inactive: [1] 0.012 | [2] 0.025 | [3] 0.007 | [4] 0.051 | [5] 0.042

DHCR24 (UniProt Q15392)
inactive: [1] 0.039 | [2] -0.032 | [3] 0.052 | [4] 0.145 | [5] -0.104

DNAJC21 isoform 3 (UniProt Q5F1R6)
inactive: [1] 0.011 | [2] -0.033 | [3] 0.059 | [4] 0 | [5] 0.06
